These are yes or no findings as the source states them, for the method shown. Binding seen in cells or lysates may run through a third protein. Some results given as binding are weak or reduced against the parent protein; the word gives no strength. Where a sequence is shown, tags or fusion partners need not be part of it.
Target: T1, human free fatty acid 2 receptor with enhanced yellow fluorescent protein fused to its C terminus (human) (UniProt O15552)
T1 sequence: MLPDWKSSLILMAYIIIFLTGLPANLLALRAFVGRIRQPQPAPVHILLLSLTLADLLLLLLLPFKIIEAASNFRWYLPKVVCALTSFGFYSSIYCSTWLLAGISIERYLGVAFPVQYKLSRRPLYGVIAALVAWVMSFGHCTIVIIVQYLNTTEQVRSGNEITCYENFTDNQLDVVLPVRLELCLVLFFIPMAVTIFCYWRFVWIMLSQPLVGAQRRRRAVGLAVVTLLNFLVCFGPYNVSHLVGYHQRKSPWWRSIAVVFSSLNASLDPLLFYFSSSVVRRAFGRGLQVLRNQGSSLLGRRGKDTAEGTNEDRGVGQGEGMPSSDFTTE
Test: FRET or BRET; HEK293T cells co-transfected 4:1 with eYFP-tagged receptor and β-arrestin-2 Renilla luciferase; Hanks' balanced salt solution, 37 °C; coelenterazine h 2.5 μM; agonist (C3 or Cmp 1) added for 10 min, with or without pre-incubation with antagonist (GLPG0974, CATPB and others); ratio of luminescence at 535 and 475 nm

By UniProt entry, the sequences of proteins in these tests, tags left out.
UniProt P32121: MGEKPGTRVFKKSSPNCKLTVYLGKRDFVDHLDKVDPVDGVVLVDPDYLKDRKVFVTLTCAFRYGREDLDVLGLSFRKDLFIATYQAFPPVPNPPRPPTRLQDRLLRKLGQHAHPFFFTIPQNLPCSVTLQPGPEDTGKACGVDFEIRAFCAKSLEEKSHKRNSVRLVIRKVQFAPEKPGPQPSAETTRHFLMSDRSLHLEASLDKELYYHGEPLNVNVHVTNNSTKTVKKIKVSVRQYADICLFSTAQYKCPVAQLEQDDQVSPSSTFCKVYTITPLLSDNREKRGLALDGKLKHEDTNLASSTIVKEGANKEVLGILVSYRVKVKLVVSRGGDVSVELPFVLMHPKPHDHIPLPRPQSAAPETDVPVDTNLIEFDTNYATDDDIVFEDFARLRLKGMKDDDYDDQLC

binding: binds
Substance: β-arrestin-2 Renilla luciferase (from UniProt P32121 1-409)

Source: PMC4697166
